From US20090004658A1
No constants are given. Whether binding was seen depends on the method and setting. In cells and extracts the contact can be indirect. Some results given as binding are weak or reduced against the parent protein; the word gives no strength.

Protein sequences, listed by entry. Tags and fused reporters are not part of them.
UniProt P05556: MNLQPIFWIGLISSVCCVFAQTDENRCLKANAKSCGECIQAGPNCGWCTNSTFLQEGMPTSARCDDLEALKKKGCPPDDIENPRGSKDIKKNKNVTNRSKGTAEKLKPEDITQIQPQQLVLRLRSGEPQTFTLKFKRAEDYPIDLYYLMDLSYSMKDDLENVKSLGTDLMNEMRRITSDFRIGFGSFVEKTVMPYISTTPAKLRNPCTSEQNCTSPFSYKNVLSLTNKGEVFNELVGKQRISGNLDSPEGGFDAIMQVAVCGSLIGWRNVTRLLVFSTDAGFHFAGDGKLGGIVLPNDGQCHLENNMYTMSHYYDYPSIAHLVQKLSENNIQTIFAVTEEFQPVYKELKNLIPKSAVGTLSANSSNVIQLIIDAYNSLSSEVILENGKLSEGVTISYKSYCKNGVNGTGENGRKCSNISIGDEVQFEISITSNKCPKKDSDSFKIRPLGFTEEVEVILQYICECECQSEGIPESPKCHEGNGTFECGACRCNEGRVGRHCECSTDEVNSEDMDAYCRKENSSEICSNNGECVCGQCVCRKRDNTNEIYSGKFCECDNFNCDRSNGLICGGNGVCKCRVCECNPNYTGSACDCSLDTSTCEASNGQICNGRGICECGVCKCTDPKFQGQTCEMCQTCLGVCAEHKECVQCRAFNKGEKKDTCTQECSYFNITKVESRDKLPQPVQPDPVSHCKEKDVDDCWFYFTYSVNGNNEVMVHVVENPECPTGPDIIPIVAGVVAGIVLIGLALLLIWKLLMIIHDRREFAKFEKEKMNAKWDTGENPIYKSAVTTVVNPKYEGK

Key:
integrin β1 [1] = molecular target: integrin β1 (UniProt P05556); test: co-immunoprecipitation, blot with anti-ITGB1 antibodies
integrin β1 [2] = molecular target: integrin β1 (UniProt P05556); test: co-immunoprecipitation with anti-ITGA7 antibody and protein G-Sepharose, blot with anti-integrin β1
integrin β1 [3] = molecular target: integrin β1 (UniProt P05556); test: co-immunoprecipitation with anti-integrin α7 antibodies from PITT1 lysates, blot with anti-integrin β1

binding (integrin β1 [1]): binds
binding (integrin β1 [2]): binds
binding (integrin β1 [3]): binds
B1: integrin α7 expressed from pcDNA4-ITGA7 in tetracycline-induced PITT1 cells (receptor)
chain: FNLDVMGALRKEGEPGSLFGFSVALHRQLQPRPQSWLLVGAPQALALPGQQANRTGGLFACPLSLEETDCYRVDIDQGADMQKESKENQWLGVSVRSQGPGGKIVTCAHRYEARQRVDQILETRDMIGRCFVLSQDLAIRDELDGGEWKFCEGRPQGHEQFGFCQQGTAAAFSPDSHYLLFGAPGTYNWKGLLFVTNIDSSDPDQLVYKTLDPADRLPGPAGDLALNSYLGFSIDSGKGLVRAEELSFVAGAPRANHKGAVVILRKDSASRLVPEVMLSGERLTSGFGYSLAVADLNSDGWPDLIVGAPYFFERQEELGGAVYVYLNQGGHWAGISPLRLCGSPDSMFGISLAVLGDLNQDGFPDIAVGAPFDGDGKVFIYHGSSLGVVAKPSQVLEGEAVGIKSFGYSLSGSLDMDGNQYPDLLVGSLADTAVLFRARPILHVSHEVSIAPRSIDLEQPNCAGGHSVCVDLRVCFSYIAVPSSYSPTVALDYVLDADTDRRLRGQVPRVTFLSRNLEEPKHQASGTVWLKHQHDRVCGDAMFQLQENVKDKLRAIVVTLSYSLQTPRLRRQAPGQGLPPVAPILNAHQPSTQRAEIHFLKQGCGEDKICQSNLQLVHARFCTRVSDTEFQPLPMDVDGTTALFALSGQPVIGLELMVTNLPSDPAQPQADGDDAHEAQLLVMLPDSLHYSGVRALDPAEKPLCLSNENASHVECELGNPMKRGAQVTFYLILSTSGISIETTELEVELLLATISEQELHPVSARARVFIELPLSIAGMAIPQQLFFSGVVRGERAMQSERDVGSKVKYEVTVSNQGQSLRTLGSAFLNIMWPHEIANGKWLLYPMQVELEGGQGPGQKGLCSPRPNILHLDVDSRDRRRRELEPPEQQEPGERQEPSMSWWPVSSAEKKKNITLDCARGTANCVVFSCPLYSFDRAAVLHVWGRLWNSTFLEEYSAVKSLEVIVRANITVKSSIKNLMLRDASTVIPVMVYLDPMAVVAEGVPWWVILLAVLAGLLVLALLVLLLWKMGFFKRAKHPEATVPQYHAVKIPREDRQQFKEEKTGTILRNNWGSPRREGPDAHPILAADGHPELGPDGHPGPGTA
